Read-outs that look alike come from different tables or passages of the source. At least one compound was matched to its structure with a doubt left.
How the values were obtained:
[1] = system: black soldier fly larvae; details: Example 4, conclusion from Table 4
Method: (§1) After the feeding was terminated, the obtained larvae were screened, washed, wiped dry and weighed. The survival rate was calculated according to the number of live larvae. The larvae were subjected to starvation for 1 day, then dried and weighed. The residual feed was also dried and weighed. Thereby, bioconversion efficiency was calculated according to the following: bioconversion efficiency=dry weight of the larvae/(dry weight of the added feed−dry weight of the residual feed)×100%. Selenium content in the larva was determined after smashing the dry larvae according to “GB5009.93-2017 Determination of Selenium in Food”.
(§2) Effects of the selenium-rich bacteria solution on breeding of the selenium-rich black soldier flies were determined according to the indicators, i.e. growth performance of the larvae (survival rate, larva weight), bioconversion efficiency, and selenium content in the larva. Test method for each indicator was the same as that in Example 2.

[2] = system: black soldier fly larvae; details: Example 3, conclusion from Table 3
Method: as §1
as §2, with “The test” for “Test”

[3] = system: black soldier fly larvae; details: Example 5, conclusion from Table 5
Method: as §1
as §2, with “The effects” for “Effects”

`O=[Se](O)O` [sodium selenite] was tested, and the “Effect on black soldier fly larvae (in words)” value (shortened to “Effect”) [1] was “exerts an inhibitory effect on the black soldier fly larvae”, the “Effect” value [2] was “exerts an inhibitory effect on the black soldier fly larvae” and the “Effect” value [3] was “exerts an inhibitory effect on the black soldier fly larvae”.

Reference: patent US20250221431A1, “METHOD FOR FEEDING BLACK SOLDIER FLY LARVAE WITH SELENIUM-RICH BACTERIA SOLUTION” (priority 2024, published 2025)
